These results are taken from publication PMC4837377.

These are yes or no findings as the source states them, for the method shown.

Test [1] deals with T1, RanBP5 expressed alone (construct 22) (human), O00410.
T1 chain: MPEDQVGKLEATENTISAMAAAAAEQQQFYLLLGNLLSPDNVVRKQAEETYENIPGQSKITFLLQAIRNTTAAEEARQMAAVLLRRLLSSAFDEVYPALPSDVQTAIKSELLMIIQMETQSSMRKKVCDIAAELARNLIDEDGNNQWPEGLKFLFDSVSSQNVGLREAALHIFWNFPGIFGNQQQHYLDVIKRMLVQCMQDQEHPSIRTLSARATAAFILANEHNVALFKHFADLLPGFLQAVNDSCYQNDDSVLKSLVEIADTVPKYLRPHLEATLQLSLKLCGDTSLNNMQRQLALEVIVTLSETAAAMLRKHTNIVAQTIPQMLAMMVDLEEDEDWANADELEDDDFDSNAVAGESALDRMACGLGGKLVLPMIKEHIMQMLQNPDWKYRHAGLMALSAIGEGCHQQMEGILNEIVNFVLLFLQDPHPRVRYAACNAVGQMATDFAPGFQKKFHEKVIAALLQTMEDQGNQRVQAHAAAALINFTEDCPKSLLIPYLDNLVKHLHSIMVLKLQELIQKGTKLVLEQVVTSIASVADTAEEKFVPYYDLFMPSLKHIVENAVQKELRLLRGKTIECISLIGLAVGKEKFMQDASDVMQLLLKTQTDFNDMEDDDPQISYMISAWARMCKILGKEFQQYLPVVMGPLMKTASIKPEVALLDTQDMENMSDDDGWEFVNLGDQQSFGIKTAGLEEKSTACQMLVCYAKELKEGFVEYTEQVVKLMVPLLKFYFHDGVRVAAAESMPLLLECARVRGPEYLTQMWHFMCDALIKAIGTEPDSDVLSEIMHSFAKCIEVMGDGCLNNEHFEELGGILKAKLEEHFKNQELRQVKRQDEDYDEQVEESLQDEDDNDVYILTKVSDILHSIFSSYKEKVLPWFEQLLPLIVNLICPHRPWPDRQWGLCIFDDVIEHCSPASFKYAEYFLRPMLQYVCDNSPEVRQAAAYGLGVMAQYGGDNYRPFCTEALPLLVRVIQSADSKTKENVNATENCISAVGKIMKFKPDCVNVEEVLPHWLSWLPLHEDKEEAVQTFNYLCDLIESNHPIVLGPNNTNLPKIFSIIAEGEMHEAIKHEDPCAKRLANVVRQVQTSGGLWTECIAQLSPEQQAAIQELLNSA
Put plainly: SEC-MALS; both purified. The conditions noted are these: remark: other sources report otherwise. For orientation: SEC sorts molecules by how far they enter the pores of the column.

Test [2] addresses T1, RanBP5 expressed alone (construct 22) …. Nature of the test: SEC-SAXS; both purified. The conditions noted are these: remark: other sources report otherwise.

B1: RanBP5 expressed alone (construct 22), O00410-3 1-1115 (protein)
chain: MPEDQVGKLEATENTISAMAAAAAEQQQFYLLLGNLLSPDNVVRKQAEETYENIPGQSKITFLLQAIRNTTAAEEARQMAAVLLRRLLSSAFDEVYPALPSDVQTAIKSELLMIIQMETQSSMRKKVCDIAAELARNLIDEDGNNQWPEGLKFLFDSVSSQNVGLREAALHIFWNFPGIFGNQQQHYLDVIKRMLVQCMQDQEHPSIRTLSARATAAFILANEHNVALFKHFADLLPGFLQAVNDSCYQNDDSVLKSLVEIADTVPKYLRPHLEATLQLSLKLCGDTSLNNMQRQLALEVIVTLSETAAAMLRKHTNIVAQTIPQMLAMMVDLEEDEDWANADELEDDDFDSNAVAGESALDRMACGLGGKLVLPMIKEHIMQMLQNPDWKYRHAGLMALSAIGEGCHQQMEGILNEIVNFVLLFLQDPHPRVRYAACNAVGQMATDFAPGFQKKFHEKVIAALLQTMEDQGNQRVQAHAAAALINFTEDCPKSLLIPYLDNLVKHLHSIMVLKLQELIQKGTKLVLEQVVTSIASVADTAEEKFVPYYDLFMPSLKHIVENAVQKELRLLRGKTIECISLIGLAVGKEKFMQDASDVMQLLLKTQTDFNDMEDDDPQISYMISAWARMCKILGKEFQQYLPVVMGPLMKTASIKPEVALLDTQDMENMSDDDGWEFVNLGDQQSFGIKTAGLEEKSTACQMLVCYAKELKEGFVEYTEQVVKLMVPLLKFYFHDGVRVAAAESMPLLLECARVRGPEYLTQMWHFMCDALIKAIGTEPDSDVLSEIMHSFAKCIEVMGDGCLNNEHFEELGGILKAKLEEHFKNQELRQVKRQDEDYDEQVEESLQDEDDNDVYILTKVSDILHSIFSSYKEKVLPWFEQLLPLIVNLICPHRPWPDRQWGLCIFDDVIEHCSPASFKYAEYFLRPMLQYVCDNSPEVRQAAAYGLGVMAQYGGDNYRPFCTEALPLLVRVIQSADSKTKENVNATENCISAVGKIMKFKPDCVNVEEVLPHWLSWLPLHEDKEEAVQTFNYLCDLIESNHPIVLGPNNTNLPKIFSIIAEGEMHEAIKHEDPCAKRLANVVRQVQTSGGLWTECIAQLSPEQQAAIQELLNSA
Turning to B1, the binding entry in test [1] and in test [2] was “no binding” throughout.
